The whole screen tested about 330,000 compounds, of which about 7,700 (2.3%) were called active. The inconclusive results got no clear call from the source; some entries with a clear call stand among them for comparison. The call rests on the fitted dose curve; in most records, active means well fitted inhibition curve with a large enough effect; inconclusive means small, poorly fitted or top-dose-only effect, or effect the other way; inactive means flat fitted curve, though single readings scatter. Where the call is inconclusive, the potency comes from a doubtful curve fit.
Assay: qHTS screen for small molecules that inhibit ELG1-dependent DNA repair in human embryonic kidney (HEK293T) cells expressing luciferase-tagged ELG1; further: nearly all actives have a fitted effect of over 55% in size
Conditions: HEK293T ELG1-luciferase reporter, luminescence, 16 h, DNA damage induced by 5-fluorouridine; activity change, negative = inhibition: at 46.1 µM (top of the series)
In short: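 Luminescence from the luciferase reporter, measured 30 min after ONE-Glo reagent at room temperature, was the read-out. Beforehand, 2,000 cells per well were exposed for 16 hr at 37 °C to 5-fluorouridine together with compound or vehicle.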
On the % scale 0 is the no-effect control and ±100 the full control effect; potency means the concentration at half of the fitted maximal effect.

SMILES	Potency	activity change, negative = inhibition
O=C(COC(=O)c1cccnc1Cl)c1ccccc1	inconclusive: 11.2 µM [activator, partial curve]	
Cc1ccc(/C=C2/NC(=O)N(Cc3ccccc3F)C2=O)s1		inactive: 14.2%
Cc1nc(SCN2C(=O)c3ccccc3C2=O)n[nH]1	inconclusive: 32.6 µM [activator, partial curve, poor fit]	
COc1ccc(NC(=S)NN2C(C)CCCC2C)cc1 (stereo not given)		inactive: 4.67%
COC(=O)C(Cc1ccc(OC(=O)c2ccccc2C)cc1)N1Cc2ccccc2C1=O (stereo not given)		inactive: -0.91%
Cc1ccccc1NC(=O)Cc1nc(CN(C)CC(=O)Nc2cccc(F)c2)cs1	inconclusive: 29.1 µM [inhibitor, single point]	
Cc1c(C(=O)OCc2nc3scc(-c4ccccc4)c3c(=O)[nH]2)cccc1[N+](=O)[O-]	inconclusive: 23.1 µM [inhibitor, partial curve, poor fit]	
O=C(C=C1SCCS1)/C=C/c1ccco1	inconclusive: 2.06 µM [activator, full curve]	
O=C(O)c1ccc(-c2nc(-c3ccccc3)c(-c3cccs3)[nH]2)cc1		inactive: 14.9%
Cc1cnc(C(=O)Nc2ccc(F)cc2)cn1	inconclusive: 14.1 µM [activator, partial curve, poor fit]	
O=C(c1cccs1)n1nc(-c2ccco2)nc1SCc1ccccc1	inconclusive: 11.6 µM [activator, partial curve]	
COC(=O)Cn1c(CN2CCN(c3ccc(F)cc3)CC2)nc2c1c(=O)n(C)c(=O)n2C	inconclusive: 3.66 µM [inhibitor, full curve]	
COc1ccc(S(=O)(=O)n2[nH]c(=O)c(CCO)c2C)c([N+](=O)[O-])c1		inactive: -6.68%
COc1ccc(-c2nnn(CC(=O)N(CC(=O)NC3CCCC3)Cc3cccs3)n2)cc1OC	inconclusive: 20.6 µM [inhibitor, partial curve, poor fit]	
CCN(CC)S(=O)(=O)c1ccc(N2CCCC2)c(NS(=O)(=O)c2ccc([N+](=O)[O-])cc2)c1		inactive: -4.83%
CC1CCCN(c2ccc(C(=O)Nc3ccc4c(c3)OCO4)cc2[N+](=O)[O-])C1 (stereo not given)	active: 20.6 µM	
O=C(OCc1cccc([N+](=O)[O-])c1)c1cc2ccccc2oc1=O	inconclusive: 14.1 µM [activator, single point]	
CCCC(=O)NC(=S)Nc1cccc(Cl)c1N1CCCC1		inactive: -7.62%
O=C(c1ccc(-c2ccccc2)cc1)N1CCN(c2ccccc2)CC1	inconclusive: 29.1 µM [activator, single point]	
COc1ccc(OCC(=O)N/N=C/c2ccc(N(C)C)cc2)cc1		inactive: 17.7%

Record cards, as listed above.
COc1ccc(-c2nnn(CC(=O)N(CC(=O)NC3CCCC3)Cc3cccs3)n2)cc1OC as listed: Potency: inconclusive: 20.6 µM [inhibitor, partial curve, poor fit]
CC1CCCN(c2ccc(C(=O)Nc3ccc4c(c3)OCO4)cc2[N+](=O)[O-])C1 (stereo not given) as listed: Potency: active: 20.6 µM
